Results published in paper PMC6828677.
No constants are given. Whether binding was seen depends on the method and setting. In cells and extracts the contact can be indirect. Some entries that bind do so weakly or less than the wild type.

Chains of the proteins cited; added tags and fusions are not shown.
UniProt P25963: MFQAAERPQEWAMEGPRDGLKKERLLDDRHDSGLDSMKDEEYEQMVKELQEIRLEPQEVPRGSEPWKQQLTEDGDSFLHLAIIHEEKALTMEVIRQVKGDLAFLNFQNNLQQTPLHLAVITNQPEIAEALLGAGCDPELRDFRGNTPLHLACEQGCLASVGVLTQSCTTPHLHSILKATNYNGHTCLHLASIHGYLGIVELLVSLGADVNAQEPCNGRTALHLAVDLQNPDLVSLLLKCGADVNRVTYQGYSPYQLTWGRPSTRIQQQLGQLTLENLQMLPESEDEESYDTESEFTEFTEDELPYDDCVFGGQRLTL
UniProt Q7Z6E9: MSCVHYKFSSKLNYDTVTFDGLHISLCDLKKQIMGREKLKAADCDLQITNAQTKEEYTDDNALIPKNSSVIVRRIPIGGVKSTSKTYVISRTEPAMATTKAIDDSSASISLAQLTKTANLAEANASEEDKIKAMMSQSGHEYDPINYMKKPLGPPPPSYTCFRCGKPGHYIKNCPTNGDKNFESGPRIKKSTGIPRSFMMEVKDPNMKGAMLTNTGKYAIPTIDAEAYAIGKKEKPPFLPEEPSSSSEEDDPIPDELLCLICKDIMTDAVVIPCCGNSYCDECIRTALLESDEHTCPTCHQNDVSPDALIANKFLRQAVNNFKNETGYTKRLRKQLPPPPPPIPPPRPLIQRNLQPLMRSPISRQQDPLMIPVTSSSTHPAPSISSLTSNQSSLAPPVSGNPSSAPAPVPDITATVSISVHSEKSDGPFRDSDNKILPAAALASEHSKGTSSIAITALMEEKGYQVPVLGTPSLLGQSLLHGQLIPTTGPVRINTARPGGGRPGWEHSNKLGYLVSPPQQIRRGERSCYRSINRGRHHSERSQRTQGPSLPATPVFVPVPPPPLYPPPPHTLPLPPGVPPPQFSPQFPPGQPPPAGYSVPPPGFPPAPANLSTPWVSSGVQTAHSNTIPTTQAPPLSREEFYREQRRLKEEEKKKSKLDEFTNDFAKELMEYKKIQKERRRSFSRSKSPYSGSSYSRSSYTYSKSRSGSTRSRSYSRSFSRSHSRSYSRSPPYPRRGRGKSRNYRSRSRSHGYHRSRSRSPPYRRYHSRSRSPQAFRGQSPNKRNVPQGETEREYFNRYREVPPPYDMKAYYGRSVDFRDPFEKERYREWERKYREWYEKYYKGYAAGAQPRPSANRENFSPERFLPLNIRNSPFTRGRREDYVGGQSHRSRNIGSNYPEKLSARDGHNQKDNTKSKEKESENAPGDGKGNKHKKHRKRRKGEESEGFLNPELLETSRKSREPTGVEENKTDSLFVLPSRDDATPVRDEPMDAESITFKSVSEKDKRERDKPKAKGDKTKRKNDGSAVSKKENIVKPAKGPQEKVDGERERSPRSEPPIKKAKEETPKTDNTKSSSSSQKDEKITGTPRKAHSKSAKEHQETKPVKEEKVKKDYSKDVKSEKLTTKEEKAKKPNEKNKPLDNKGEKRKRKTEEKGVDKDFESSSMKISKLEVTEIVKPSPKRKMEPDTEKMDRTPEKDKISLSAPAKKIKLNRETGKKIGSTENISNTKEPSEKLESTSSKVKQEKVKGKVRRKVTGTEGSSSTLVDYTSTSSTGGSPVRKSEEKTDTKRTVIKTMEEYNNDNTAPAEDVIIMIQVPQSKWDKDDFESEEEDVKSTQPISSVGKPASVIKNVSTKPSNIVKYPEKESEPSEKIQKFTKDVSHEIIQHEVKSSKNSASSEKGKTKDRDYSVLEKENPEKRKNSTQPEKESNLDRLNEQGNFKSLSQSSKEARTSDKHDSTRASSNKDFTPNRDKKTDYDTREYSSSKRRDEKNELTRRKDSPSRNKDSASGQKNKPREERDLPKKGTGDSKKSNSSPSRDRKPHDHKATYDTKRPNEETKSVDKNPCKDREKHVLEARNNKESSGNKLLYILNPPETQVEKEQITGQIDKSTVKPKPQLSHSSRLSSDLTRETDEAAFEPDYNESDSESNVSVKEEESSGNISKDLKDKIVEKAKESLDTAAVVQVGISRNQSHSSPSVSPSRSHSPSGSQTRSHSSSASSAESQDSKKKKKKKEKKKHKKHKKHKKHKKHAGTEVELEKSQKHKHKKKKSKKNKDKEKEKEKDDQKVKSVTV

Molecular target: Flag-IκBα (UniProt P25963)
Experiment: co-IP; HEK293 cells co-transfected with Flag-IκBα and HA-RBBP6 (full length or ΔRing Finger); lysates incubated with 2 μg antibody at 4 °C overnight, protein A/G agarose beads 4 h at 4 °C, PBS washes, western blot

- binding: binds
Substance: HA-RBBP6 (full length) (from UniProt Q7Z6E9 1-1792)
